Measured values as given in patent US20090192137A1, “Dialysis method” (AstraZeneca AB, priority 1993, published 2009).

Experiments:
[1] = Haemodialysis simulation, filtration of melagatran in an open single pass system; format: in vitro ADME
[2] = Haemodialysis simulation, filtration of melagatran in a closed system of re-circulation; format: in vitro ADME
[3] = steady state after about 5 minutes

Q: With `N=C(N)c1ccc(CNC(=O)[C@@H]2CCN2C(=O)[C@H](NCC(=O)O)C2CCCCC2)cc1` [melagatran, HOOC—CH2—(R)Cgl-Aze-Pab-H] as the compound, how does the “concentration of melagatran on the Recipient side (outlet A), plateau” value ([1]; after 5 minutes) read?
A: The value was “about 130 nM”.

Q: And the “fall of melagatran concentration on the Donor side” value ([1]; inlet C versus outlet B at steady state)?
A: The value was “about 130 nM”.

Q: What about the “time to experimental steady state” value ([1]; open single pass system, dialysis fluid about 0.2 μM melagatran) of the same compound?
A: Its value is “about 5 minutes”.

Q: And the “concentration of melagatran at inlet C on the Donor side” value [1, 3]?
A: The value was “about 180 nM”.

Q: What about the “concentration of melagatran at outlet B on the Donor side” value [1, 3] of the same compound?
A: Its value is “about 50 nM”.

Q: What about the “diffusion gradient across the membrane” value ([1]; steady state, anti-parallel flows) of the same compound?
A: The value was “about 50 nM”.

Q: What about the “concentration of melagatran at donor side in- and outlets” value ([2]; after about 2 hours, equilibrated) of the same compound?
A: The value was “around 180 nM”.

Q: And the “concentration of melagatran in the tank (Recipient side), level-off” value ([2]; after about 2 hours, with some delay compared to the Donor side)?
A: Its value is “around 180 mM”.

Q: And the “time until the system had equilibrated” value ([2]; closed system, tank with 15 L saline)?
A: The value was “about 2 hours”.

Q: What about the “gradient between inlet C and outlet B on the Donor side” value ([2]; when concentrations on the recipient side were small) of the same compound?
A: The value was “about 130 nM”.
